# In PubChem BioAssay AID1963318 (National Center for Advancing Translational Sciences (NCATS), 2024):
# Amino acid sequences for entries named in this document (tags omitted).
# UniProt P08659, whole entry, looked up: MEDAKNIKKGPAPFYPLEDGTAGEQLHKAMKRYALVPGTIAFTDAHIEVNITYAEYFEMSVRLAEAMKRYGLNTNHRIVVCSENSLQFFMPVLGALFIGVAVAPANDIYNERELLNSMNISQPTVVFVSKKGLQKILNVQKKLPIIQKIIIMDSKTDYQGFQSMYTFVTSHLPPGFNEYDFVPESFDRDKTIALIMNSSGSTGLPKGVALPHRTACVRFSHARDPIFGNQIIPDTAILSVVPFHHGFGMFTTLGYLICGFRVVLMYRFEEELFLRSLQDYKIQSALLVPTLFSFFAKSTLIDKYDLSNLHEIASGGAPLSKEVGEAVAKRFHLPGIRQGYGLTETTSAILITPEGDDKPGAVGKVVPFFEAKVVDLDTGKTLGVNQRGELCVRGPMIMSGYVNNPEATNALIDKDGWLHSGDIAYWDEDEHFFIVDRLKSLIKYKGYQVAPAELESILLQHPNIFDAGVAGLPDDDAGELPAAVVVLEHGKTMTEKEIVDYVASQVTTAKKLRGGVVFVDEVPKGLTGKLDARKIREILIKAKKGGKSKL
# Out of some 1,300 compounds screened, about 100 (7.7%) were called active. Another 19% or so got no clear call; they are omitted. Calls follow the shape of the dose curve; as a rule, active = well fitted activation curve with a large enough effect; inconclusive = small, poorly fitted or top-dose-only effect; inactive = no such curve, though single readings can be large or run the other way. The entries are a selection whose mix differs from that of the whole data set.
# Target: Luciferin 4-monooxygenase (Photinus pyralis) (UniProt P08659)
# Test: Firefly luciferase (FLuc-C-HiBiT) SDR gain of signal screen - without ATP; also: nearly all actives have a fitted effect of over 55% in size
# Settings: Purified FLuc-C-HiBiT, Nano-Glo HiBiT luminescence, no ATP; at 49.3 µM (top of the series)
# From the text: PI: James Inglese Ph.D. National Center for Advancing Translational Sciences (NCATS), National Institute of Health (NIH), Maryland Discovery and optimization of novel protein-binding ligands underlies many of the methods and applications of biology, drug discovery, clinical diagnostics, and environmental toxicology. Assays for detecting the interaction of, for example, a molecule with a macromolecular target also referred to here as the target of interest (TOI) is dependent on a compatible output technology. Depending on the nature and knowledge surrounding the TOI, whether a receptor, enzyme, regulatory subunit or scaffold, or a sequence-defined nucleic acid folded into a complex tertiary structure, assay strategies can vary widely. Here we exploit ligand-biased changes in the structural dynamics of the target protein to control reporter alpha complementation allowing a non-competitive, non-functional, non-separation measure of ligand-target interaction. […]
# 1. […] HiBiT SDR assay measured using CCD-based camera (ViewLux) with settings as follows: Exposure, 1 sec; Gain, High; Speed, Slow; Binning, 2X. […]
row,Structure (SMILES),activation (signal gain)
1,CN1CCNc2cc(-c3ccc([S+](C)(=O)[O-])cc3)ncc2C1,inactive: 15.2%
